Measured values as given in patent US6352980B1, “Estrenes for inducting hypothalamic effects” (Pherin Pharmaceuticals, Inc., priority 1991, dated 2002).
Some results were stated once for a whole list of compounds, not compound by compound. At least one compound was matched to its structure with a doubt left. Some compounds share one range, which may span the group rather than tell each member.

Each compound was assayed on VNO (assay: Cortical activity (EEG) on VNO stimulation with vomeropherins). Conditions: males; 200 fmoles; FIG. 6E.
Assay type: in vivo, human
Experimental: Cortical evoked activity was induced by VNO stimulation with vomeropherins, and olfactory stimulation with odorants delivered in 300 ms air pulses. It was recorded using standard electroencephalographic (EEG) electrodes placed at positions Cz-A1 and Tz-A1 of the international […] system; the ground electrode was placed on the mastoid process. Electrodermal activity (EDA) was recorded using standard 8 mm silver electrodes in contact with palmar skin of the medial and ring fingers, respeCtively, through a conductive gel interface. Skin temperature (ST) was recorded by a small (1.0 mm) thermistor probe placed in the right ear lobe. Peripheral arterial pulse (PAP) was monitored with a plethysmograph attached to the tip of the index finger. Respiratory frequency (RF) was measured with an adjustable strain gauge placed around the lower thorax. All electrical signals were DC amplified, digitized (MP-100, Biopac Systems) and continuously monitored utilizing a computer.
Statistical Analysis: EVGs or EOGS, peak-to-peak changes and frequency changes of other parameters were measured and statistically analyzed. The significance of the results was determined by either using paired t-tests or analysis of variance (ANOVA).
[…] […] Synchronization of the EEG was sustained for 1.5 to 2.7 minutes after application of a single pulse of active substance.

**Q.** With `CC(=O)Oc1ccc2c(c1)CC[C@@H]1[C@@H]2CC[C@]2(C)C=CC[C@@H]12` [A, 1,3,5(10),16-Estratetraen-3-yl acetate] as the compound, how does the “latency of increase in alpha cortical activity” value (shortened to “latency of increase”) read?
**A.** 270 to 380 ms

**Q.** Which “latency of increase” value does the source give for `C[C@@]12C=CC[C@H]1[C@@H]1CCc3cc(O)ccc3[C@H]1CC2` [C, 1,3,5(10),16-Estratetraen-3-ol] here?
**A.** 270 to 380 ms

**Q.** With `COc1ccc2c(c1)CC[C@@H]1[C@@H]2CC[C@]2(C)C=CC[C@@H]12` [D, 3-Methoxy-Estra-1,3,5(10)16-tetraene] as the compound, how does the “latency of increase” value read?
**A.** 270 to 380 ms
